Measured values as given in PubChem BioAssay AID602313 (National Center for Advancing Translational Sciences (NCATS), 2012).
Screen size: about 390,000 compounds; about 760 (0.19%) were called active. The shares of active, inactive and inconclusive entries below differ from those in the screen. Calls come from the whole dose curve; as a rule, active = well fitted inhibition curve with a large enough effect; inconclusive = small, poorly fitted or top-dose-only effect; inactive = flat fitted curve, though single readings scatter. Where the call is inconclusive, the potency comes from a doubtful curve fit.
Potency is the fitted concentration of half-maximal effect.

Experiment: qHTS for Inhibitors of Vif-A3F Interactions: qHTS; note: nearly all actives have a fitted effect of over 65% in size; for activity, negative = active: % of control where 0% means no effect
Conditions: HeLa A3F-eYFP + Vif (tagged APOBEC3F with the HIV-1 protein that degrades it), YFP fluorescence increase; series mostly up to 46.1 µM; activity, negative = active: at the top concentration
Outline: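 HeLa cells stably expressing Vif plus C-terminally eYFP-tagged A3F were seeded, incubated overnight at 37 deg C, dosed with compound, incubated overnight again at 37 deg C. Yellow fluorescence (Ex 488/Em 500-530) reported blocked Vif-mediated A3F-eYFP degradation.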
For `Cc1cccc(C)c1NC(=S)N(Cc1cccnc1)Cc1ccccc1Cl`, the Potency was inconclusive: 0.562 µM [inhibitor, full curve, poor fit].
For `CCOC(=O)/C(C#N)=C\C=C1C=CN(C)C=C1`, the Potency was active: 22.4 µM.
With `C[C@]12CC[C@@H]3c4cc(O)c(O)cc4CC[C@H]3[C@@H]1CC[C@@H]2O` the “activity, negative = active” value was inactive: -5.59%.
For `Cc1ccccc1/C(N)=N/OC(=O)c1cccs1`, the Potency was inconclusive: 35.5 µM [inhibitor, single point].
With `O=C(N/N=C/c1c(O)n(-c2ccccc2Cl)c(=O)c2ccccc12)C1COc2ccccc2O1` (configuration not stated) the Potency was inconclusive: 35.5 µM [inhibitor, single point].
With `Cc1ccc(S(=O)(=O)n2nc(OC(=O)c3cccc(F)c3)cc2N)cc1` the Potency was inconclusive: 3.98 µM [inhibitor, single point].
In the case of `CCS(=O)(=O)Nc1cccc(C2=NN(S(C)(=O)=O)C(c3ccccc3)C2)c1` (configuration not stated), the Potency is reported as inconclusive: 25.1 µM [inhibitor, partial curve, poor fit].
For `CCn1c(SCC(=O)N/N=C/C=C/c2ccco2)nc2ccccc21`, the Potency was inconclusive: 22.4 µM [inhibitor, single point].
In the case of `Cc1c(-c2nnc(SCC(=O)Nc3ccccc3F)o2)nnn1-c1ccc(F)cc1`, the Potency is reported as inconclusive: 20 µM [inhibitor, partial curve, poor fit].
With `Cc1ccc(C(=O)NC(=S)Nc2ccccc2C)cc1` the Potency was inconclusive: 35.5 µM [inhibitor, single point].
For `O=C1OC(c2cccs2)=N/C1=C/c1ccc(-c2cccc(C(=O)O)c2)o1`, the “activity, negative = active” value was inactive: -7.98%.
For `CCC(C)NC(=S)NNC(=O)c1ccncc1` (configuration not stated), the Potency was inconclusive: 3.98 µM [inhibitor, full curve].
For `CCn1c(C)nc2cc(C(=O)N/N=C/c3cccc(OC)c3O)ccc21`, the “activity, negative = active” value was inactive: 21.5%.
For `CCCn1c(C)cc(C(=O)CN2C(=O)c3cccc(N)c3C2=O)c1C`, the Potency was inconclusive: 20 µM [inhibitor, single point].
For `Cc1cccc(-n2cc(CN(C)Cc3nccn3C)c(-c3cccc(F)c3)n2)c1`, the Potency was inconclusive: 10 µM [inhibitor, partial curve].
In the case of `Oc1ccccc1C=NC1CCCCC1N=Cc1ccccc1O` (configuration not stated), the Potency is reported as inconclusive: 7.08 µM [inhibitor, partial curve, poor fit].
In the case of `Cc1cc(C)nc(/N=C(\N)Nc2cccc(OCc3ccccc3)c2)n1`, the Potency is reported as inconclusive: 35.5 µM [inhibitor, single point].
For `CC(C)Oc1ccc(CNC(=O)C2CCN(c3nc4ccccc4nc3C(F)(F)F)CC2)cc1`, the “activity, negative = active” value was inactive: 1.65%.
With `CCc1ccc2nc(Nc3ccc(OC)cc3OC)c(C#N)cc2c1` the Potency was inconclusive: 15.8 µM [inhibitor, single point].
For `CCCn1c2ccccc2c2cnn(CC(=O)NCc3ccccc3Cl)c(=O)c21`, the Potency was inconclusive: 35.5 µM [inhibitor, single point].
In the case of `CC1Cc2c([nH]c3ccccc23)C2c3ccccc3CN12` (configuration not stated), the Potency is reported as inconclusive: 11.2 µM [inhibitor, partial curve].
For `Cc1ccc(-c2nc(C)sc2CC(=O)OCC(=O)Nc2cccc([N+](=O)[O-])c2)cc1`, the Potency was inconclusive: 35.5 µM [inhibitor, single point].
In the case of `COc1ccc(-c2n[nH]c3c2C(c2ccc(OC)c(OC)c2)N(c2ccccc2)C3=O)cc1` (configuration not stated), the “activity, negative = active” value is reported as inactive: 8.52%.
In the case of `CC(=O)Nc1ccc(S(=O)(=O)Oc2cccc(/C=N/N=C3/NC(=O)C(CC(=O)O)S3)c2)cc1` (configuration not stated), the Potency is reported as inconclusive: 12.6 µM [inhibitor, partial curve, poor fit].
In the case of `C/C(=N\NC(=O)c1nnn(-c2nonc2N)c1CN1CCc2ccccc21)c1ccccc1O`, the Potency is reported as inconclusive: 35.5 µM [inhibitor, single point].
With `O=C1c2cc([N+](=O)[O-])cc3cc([N+](=O)[O-])cc(c23)C(=O)N1c1ccccn1` the Potency was inconclusive: 3.55 µM [inhibitor, partial curve, poor fit].
For `Cc1nc2c(-c3ccc(F)cc3)c(C)nn2c(C)c1CCC(=O)N1CCN(c2ccccc2)CC1`, the Potency was “inactive”.
For `C(=C\n1nnc2ccccc21)/c1ccc[nH]1`, the Potency was inconclusive: 35.5 µM [inhibitor, single point].
With `Cc1ccc(-c2c[n+](CC(=O)N3c4ccccc4Sc4ccccc43)c3n2CCC3)cc1` the “activity, negative = active” value was inactive: -3.02%.
For `Cc1cc(C)c(NC(=O)Cn2nc(-c3ccncc3)ccc2=O)c(C)c1`, the “activity, negative = active” value was inactive: 3.53%.
For `O=C(COc1ncnc2ccccc12)NCCc1ccccc1`, the Potency was inconclusive: 6.31 µM [inhibitor, single point].
For `O=C(c1cc(F)c(F)cc1Cl)N1CCN(S(=O)(=O)c2cccs2)CC1`, the Potency was inconclusive: 35.5 µM [inhibitor, single point].
In the case of `CC(C)OC(=O)c1ccc(N2CCN(c3ccc(F)cc3)CC2)nc1`, the “activity, negative = active” value is reported as inactive: -7.72%.
In the case of `CCN1CCc2c(sc(NC(=O)c3ccc(S(=O)(=O)N(C)c4ccccc4)cc3)c2C(=O)NC)C1`, the Potency is reported as active: 11.2 µM.
With `CC(C)(C)c1ccc(/C=C/C(=O)c2ccc(NC3=NCCCS3)cc2)cc1` the “activity, negative = active” value was inactive: -10.2%.
For `COc1ccc(/C=C/C(=O)NC(=S)NN2CCCCC2c2cccnc2)cc1` (configuration not stated), the Potency was inconclusive: 35.5 µM [inhibitor, single point].
With `COc1ccc(-c2ccc(S(=O)(=O)N3CCCC3)cc2)cc1` the Potency was inconclusive: 1.41 µM [inhibitor, full curve].
With `CCN(C(=O)COC(=O)c1cc(-c2ccccc2)nn1-c1ccccc1)C1CCS(=O)(=O)C1` (configuration not stated) the Potency was inconclusive: 3.16 µM [inhibitor, single point].
In the case of `CCC1C(c2ccccc2)=CCC(C(=O)O)C1C` (configuration not stated), the Potency is reported as inconclusive: 7.08 µM [inhibitor, partial curve, poor fit].
In the case of `CC1=NN(c2ccccc2)C(=O)C1C(=S)SC1CC(=O)NC1=O` (configuration not stated), the Potency is reported as inconclusive: 35.5 µM [inhibitor, single point].
With `CCN1/C(=C/c2cccc[n+]2C)Sc2ccc(OC)cc21` the Potency was active: 25.1 µM.
For `CN(C)CCNC(=O)c1cccc2nc3c(ccc4ccccc43)nc12`, the Potency was inconclusive: 25.1 µM [inhibitor, single point].
